The record followed here is publication PMC7819943, “Rice protein-binding microarrays: a tool to detect cis-acting elements near promoter regions in rice”.

The other results are listed elsewhere or left out.

For the assay, the target named is T1, OsSMF1 (Oryza sativa, UniProt Q6ZLB0 1-436).
T1 sequence: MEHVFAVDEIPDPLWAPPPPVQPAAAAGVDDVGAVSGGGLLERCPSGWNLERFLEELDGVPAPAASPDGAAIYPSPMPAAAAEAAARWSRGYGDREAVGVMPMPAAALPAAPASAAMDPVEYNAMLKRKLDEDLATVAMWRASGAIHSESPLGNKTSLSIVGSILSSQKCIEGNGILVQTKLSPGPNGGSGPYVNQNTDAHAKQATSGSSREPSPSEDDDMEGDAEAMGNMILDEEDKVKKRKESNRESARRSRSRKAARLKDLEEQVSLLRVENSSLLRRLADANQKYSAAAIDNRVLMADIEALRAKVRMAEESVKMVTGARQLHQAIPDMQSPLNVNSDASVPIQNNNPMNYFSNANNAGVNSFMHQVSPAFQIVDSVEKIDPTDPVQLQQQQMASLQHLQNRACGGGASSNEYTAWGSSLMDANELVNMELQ
Put plainly: protein-binding microarray (RPBM); PBS, 2% BSA, 51.3 ng/ul salmon testes DNA, 50 uM zinc acetate, 200 nM TF, 25 C, 1 h; high values mean tight binding. The following applies: protein: recombinant; tags: N-terminal polyhistidine and DsRed monomer fusion (pET32a); chain copies: 2; label: CyDye5-dUTP incorporated in the synthesized complementary strand; 3' TTTTT single-stranded linker to array surface; dsDNA, one strand shown. In a few lines:
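Using Ni–NTA, transcription factors fused N-terminally to polyhistidine and DsRed were purified after expression in E. coli BL21-CodonPlus. These were incubated at 200 nM with a blocked, double-stranded custom Agilent array for 1 h at 25 °C in a buffer containing 50 µM zinc acetate, and the array was washed. The binding signal is per-feature fluorescence intensity (arbitrary units) on an Axon 4000B scanner.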
For the sequence “AGCTGGGATGGTGACGAGGATTGATTCCCATCGGTGATCCCGGAGTCACCTAGTGCAG”, the binding signal is 5890 fluorescence intensity (a.u.). The value for “CTTGAGCCTAATTGCTCCATGATTTGACATGTTGTGCTATCGGAGTCACCTAGTGCAG” was 3470 fluorescence intensity (a.u.). Turning to “TCCTTGACAGTTCTTGCATTGTATGTGTCAGCTCATGTGTCGGAGTCACCTAGTGCAG”, the binding signal is 3900 fluorescence intensity (a.u.). On to “GGAGTAAGCCAATTGGACGATCCGTGACGCATCGATCGGTCGGAGTCACCTAGTGCAG”, for which the binding signal is 4690 fluorescence intensity (a.u.).

As for “TCGACCTGCCAACATCAACATGCAATCGGCCTCCTGTCCTCGGAGTCACCTAGTGCAG”, the binding signal was 3890 fluorescence intensity (a.u.).

Regarding “AGAAATTTGCATTCTAAGGTACAAGTCAGCAATCAGCCCACGGAGTCACCTAGTGCAG”, the binding signal was 4460 fluorescence intensity (a.u.). Take “AGGTGCGGGGCGTCCGGCCGCCACGTGGCGGGCGAACCCACGGAGTCACCTAGTGCAG”: the binding signal was 4730 fluorescence intensity (a.u.). With “ACCAATCCTACCACCACGTAGTACACACACACTACACACACGGAGTCACCTAGTGCAG”, the binding signal was 4720 fluorescence intensity (a.u.). With “AACGCCACCATCTTCCTCAGCCGTAGCCCGTAGGTCGACGCGGAGTCACCTAGTGCAG” the figure was 22600 fluorescence intensity (a.u.). For “CCAAGCCACCACGCCACCCAAACCGCGATTTCTGATCGATCGGAGTCACCTAGTGCAG”, the binding signal was 3250 fluorescence intensity (a.u.). As to “GCCACCATCGTCATCCATTCCCTCATCAGTGAGAGAGCTACGGAGTCACCTAGTGCAG”, the binding signal was 3710 fluorescence intensity (a.u.). With “TAATCCTTATGTAGGATCGGGATCCTACGTAAGCTCTACCCGGAGTCACCTAGTGCAG” the figure was 6660 fluorescence intensity (a.u.). The value for “ACGGATTGGCCTTGTGCCGTGCTGCTACAGTACGTGTGATCGGAGTCACCTAGTGCAG” was 3360 fluorescence intensity (a.u.); that for “TGGGTGTGACACATCTTAATACATGAATCTGAATATACATCGGAGTCACCTAGTGCAG” was 3650 fluorescence intensity (a.u.).

In the case of “CGCGGAGCAGCGGATGACGACGTGGACTCAGCTGTCGTGCCGGAGTCACCTAGTGCAG”, the binding signal was 7230 fluorescence intensity (a.u.). With “GAGAGAGAGAAAGAGGGGAAGGGGAGATATGACAGGTGGGCGGAGTCACCTAGTGCAG” the figure was 3520 fluorescence intensity (a.u.); with “ACTAGACTCGTGTTATCGTTGCCACATGACCAAGCCCCACCGGAGTCACCTAGTGCAG”, 4200 fluorescence intensity (a.u.). Take “TGAAATGAGGCTGATGTCATGATTAATTAGTCCGCATATTCGGAGTCACCTAGTGCAG”: the binding signal was 7840 fluorescence intensity (a.u.). The value for “CTGATCCTCGCTGACACCTCGGTCAGCATGGCAGGAGAGTCGGAGTCACCTAGTGCAG” was 4020 fluorescence intensity (a.u.); that for “AGCGCCGTATAAACACCCCTCGGTTCGCGTTTTGGTCGCGCGGAGTCACCTAGTGCAG” was 3280 fluorescence intensity (a.u.). As to “CGCCATGGGCGACATCGACATCTACAGCCTCTACACTCCGCGGAGTCACCTAGTGCAG”, the binding signal is 44200 fluorescence intensity (a.u.). For “AATTGTGTAGTATGTGACTATTGTATGAATGAGCTATTAGCGGAGTCACCTAGTGCAG”, the binding signal is 27600 fluorescence intensity (a.u.). The value for “GGCCTGCAAACTGCTTACGCCTACCAGTTTGTACCCGATCCGGAGTCACCTAGTGCAG” was 3720 fluorescence intensity (a.u.); that for “TTACAGCCACAATGTTCTAGCTCTACCCACACAACTTCTGCGGAGTCACCTAGTGCAG” was 5120 fluorescence intensity (a.u.). The value for “TGCTTTTGGGAGGCGTGTGGCGTTGTGGTGGTGGTGGTGGCGGAGTCACCTAGTGCAG” was 3150 fluorescence intensity (a.u.); that for “AGATGCCACATCATCGTCCACTAAGAAGATATCACATCATCGGAGTCACCTAGTGCAG” was 11600 fluorescence intensity (a.u.). With “GATGGATAGAGAGAGAGAGAGAGAGAGATTGACACGTGAGCGGAGTCACCTAGTGCAG” the figure was 6550 fluorescence intensity (a.u.).

In the case of “TAAGGCGGGGCGGGCTCGCGCCATCGACCGCACACCGGTGCGGAGTCACCTAGTGCAG”, the binding signal was 3230 fluorescence intensity (a.u.). “CATGCAATGGTCGTCACGGCAGCTTGACGTGGGCCCACCACGGAGTCACCTAGTGCAG”: the binding signal is 5880 fluorescence intensity (a.u.).

Consider “ACACACGCCTGCATGCGCTTTGGTGCACCATCACGCACAGCGGAGTCACCTAGTGCAG”, for which the binding signal was 3310 fluorescence intensity (a.u.). In the case of “CTATAAAAGGGAGCACCACCTCCCACGCGCGCCGCAGCGGCGGAGTCACCTAGTGCAG”, the binding signal was 3970 fluorescence intensity (a.u.).

“CGAGAGGAGAGGAGACGGGTGACGCATGCAACGGCCGGCCCGGAGTCACCTAGTGCAG”: the binding signal was 7900 fluorescence intensity (a.u.). Turning to “CCTCCTAATAACGTGCTAATTACGACACGTGTTAACCATACGGAGTCACCTAGTGCAG”, the binding signal is 7650 fluorescence intensity (a.u.). With “CAGAAACCAACCAACACAAGACACCGACCGACGCCGACCACGGAGTCACCTAGTGCAG” the figure was 8450 fluorescence intensity (a.u.). With “TTCATCATGTCATGAGGTGGCATTCTAGTGATTATTGCGACGGAGTCACCTAGTGCAG” the figure was 8320 fluorescence intensity (a.u.); with “CATTCCATTCATGACGCCATTAATTTAGCTATTTGAGTCACGGAGTCACCTAGTGCAG”, 3870 fluorescence intensity (a.u.). For “TAACCCAGTGCAAATTAAAGTGCAGCAAGGAAGATGCAACCGGAGTCACCTAGTGCAG”, the binding signal was 17900 fluorescence intensity (a.u.).

On to “CGGCTTGGTGACCCTACTGCGCCGCCAAGTCACCCGCTCGCGGAGTCACCTAGTGCAG”, for which the binding signal is 5330 fluorescence intensity (a.u.).

“ATGTCCCGCACACCACCCCTCGGCCGCGTCGGCAGCGACCCGGAGTCACCTAGTGCAG”: the binding signal was 4280 fluorescence intensity (a.u.).

As for “TACATATATATATACATATATATATATATATACATATATACGGAGTCACCTAGTGCAG”, the binding signal was 30400 fluorescence intensity (a.u.).

For the sequence “TGTGTGCTGTGCTGTGCAGTGGCGATGACTGCTTTGCTGCCGGAGTCACCTAGTGCAG”, the binding signal is 3770 fluorescence intensity (a.u.).

“CATCTCCCTCAACGTCATCGCCATCGGCCTCTCCGCCCTCCGGAGTCACCTAGTGCAG”: the binding signal was 6370 fluorescence intensity (a.u.).
